Source: the M2OR odorant receptor database
This is a selection; strong and weak results do not stand in their true shares. The calls were merged from several studies; some rest on single wells. The list shows a part of the results. The list shows a part of the results.

Tests used:
Settings in all cases: stereoisomer not certain
OR5AN1 (Homo sapiens) = molecular target: T1, OR5AN1 (Homo sapiens) (UniProt Q8NGI8)
T1 sequence (whole entry): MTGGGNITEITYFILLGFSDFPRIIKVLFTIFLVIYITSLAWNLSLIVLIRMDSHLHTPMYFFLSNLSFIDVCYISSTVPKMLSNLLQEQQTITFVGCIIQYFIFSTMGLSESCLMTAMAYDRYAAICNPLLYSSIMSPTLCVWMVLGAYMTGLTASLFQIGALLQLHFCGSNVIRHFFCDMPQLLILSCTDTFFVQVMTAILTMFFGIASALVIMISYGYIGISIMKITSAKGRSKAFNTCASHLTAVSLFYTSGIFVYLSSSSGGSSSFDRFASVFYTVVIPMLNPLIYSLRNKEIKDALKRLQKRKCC
Procedure, shortened: (§1)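 Values were gathered from published papers (main text and supplementary material), with extra details requested from the original authors when needed, and checked for typos and inconsistencies. Each receptor–molecule pair is called responsive (active) if the original authors judged the measured signal statistically different from baseline, and non-responsive (inactive) otherwise. Assay methods varied by source, often transient mammalian cell-line luciferase assays. Recorded details include cell line, G-protein, co-transfected protein and tags.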

OR5AR1 (Homo sapiens) = molecular target: T2, OR5AR1 (Homo sapiens) (UniProt Q8NGP9)
T2 sequence (whole entry): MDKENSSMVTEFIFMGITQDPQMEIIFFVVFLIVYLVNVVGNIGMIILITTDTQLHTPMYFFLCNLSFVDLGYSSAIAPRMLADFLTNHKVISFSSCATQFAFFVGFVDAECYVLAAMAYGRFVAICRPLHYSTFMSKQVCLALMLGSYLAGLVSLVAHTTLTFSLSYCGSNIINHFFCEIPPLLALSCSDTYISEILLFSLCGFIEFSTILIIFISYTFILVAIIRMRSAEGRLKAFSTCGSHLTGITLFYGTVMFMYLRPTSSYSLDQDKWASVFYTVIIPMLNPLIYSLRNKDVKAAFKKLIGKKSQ
Procedure, shortened: as §1

OR5AS1 (Homo sapiens) = molecular target: T3, OR5AS1 (Homo sapiens) (UniProt Q8N127)
T3 sequence (whole entry): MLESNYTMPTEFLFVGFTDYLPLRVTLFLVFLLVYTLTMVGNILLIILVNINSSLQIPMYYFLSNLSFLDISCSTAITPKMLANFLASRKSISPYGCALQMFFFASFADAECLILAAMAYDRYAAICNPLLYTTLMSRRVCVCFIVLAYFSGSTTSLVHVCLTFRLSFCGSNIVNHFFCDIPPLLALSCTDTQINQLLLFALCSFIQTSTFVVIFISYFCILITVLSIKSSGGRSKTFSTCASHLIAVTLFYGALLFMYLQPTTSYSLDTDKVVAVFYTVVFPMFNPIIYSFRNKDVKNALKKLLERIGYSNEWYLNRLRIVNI
Procedure, shortened: as §1

OR5AU1 (Homo sapiens) = molecular target: T4, OR5AU1 (Homo sapiens) (UniProt Q8NGC0)
T4 sequence (whole entry): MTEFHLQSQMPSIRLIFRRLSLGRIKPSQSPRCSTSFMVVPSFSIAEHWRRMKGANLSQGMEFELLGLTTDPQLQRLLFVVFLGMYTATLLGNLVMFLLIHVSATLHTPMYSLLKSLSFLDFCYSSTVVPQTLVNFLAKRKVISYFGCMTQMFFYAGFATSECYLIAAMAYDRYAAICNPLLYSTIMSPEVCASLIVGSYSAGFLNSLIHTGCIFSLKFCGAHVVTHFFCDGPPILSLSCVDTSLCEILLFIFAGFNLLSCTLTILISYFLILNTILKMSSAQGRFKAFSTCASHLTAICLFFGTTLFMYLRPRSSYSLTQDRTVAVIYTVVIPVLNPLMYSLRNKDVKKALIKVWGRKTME
Procedure, shortened: as §1

OR5B17 (Homo sapiens) = molecular target: T5, OR5B17 (Homo sapiens) (UniProt Q8NGF7)
T5 sequence (whole entry): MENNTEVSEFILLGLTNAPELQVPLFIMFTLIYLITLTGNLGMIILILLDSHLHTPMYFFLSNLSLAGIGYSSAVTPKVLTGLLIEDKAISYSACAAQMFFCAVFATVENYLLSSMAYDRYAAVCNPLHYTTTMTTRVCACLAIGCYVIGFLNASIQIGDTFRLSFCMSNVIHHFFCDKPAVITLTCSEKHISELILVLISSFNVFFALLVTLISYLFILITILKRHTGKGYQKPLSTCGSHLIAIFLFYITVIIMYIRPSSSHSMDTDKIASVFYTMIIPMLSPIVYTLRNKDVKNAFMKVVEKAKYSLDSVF
Procedure, shortened: as §1

OR5B2 = system: T6, OR5B2
T6 sequence (whole entry): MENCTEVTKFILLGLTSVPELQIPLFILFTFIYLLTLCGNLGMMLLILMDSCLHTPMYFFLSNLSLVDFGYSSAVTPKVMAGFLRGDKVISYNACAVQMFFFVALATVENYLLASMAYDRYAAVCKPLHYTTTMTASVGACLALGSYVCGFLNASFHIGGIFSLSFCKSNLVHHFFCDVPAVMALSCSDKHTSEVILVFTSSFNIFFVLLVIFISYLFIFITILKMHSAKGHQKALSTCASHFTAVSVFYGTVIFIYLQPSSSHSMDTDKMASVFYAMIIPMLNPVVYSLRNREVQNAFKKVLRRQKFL
Procedure, shortened: as §1

OR5B3 (Homo sapiens) = molecular target: T7, OR5B3 (Homo sapiens) (UniProt Q8NH48)
T7 sequence (whole entry): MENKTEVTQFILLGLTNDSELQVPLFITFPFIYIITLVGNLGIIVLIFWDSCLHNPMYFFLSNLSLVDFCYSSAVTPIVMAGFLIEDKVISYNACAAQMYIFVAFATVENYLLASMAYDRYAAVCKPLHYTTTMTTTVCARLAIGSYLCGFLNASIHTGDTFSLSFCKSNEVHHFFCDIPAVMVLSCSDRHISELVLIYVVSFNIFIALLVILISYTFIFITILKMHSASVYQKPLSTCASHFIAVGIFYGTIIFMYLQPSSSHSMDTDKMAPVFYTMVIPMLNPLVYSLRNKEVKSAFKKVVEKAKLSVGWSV
Procedure, shortened: as §1

OR5BC = system: T8, OR5BC
T8 sequence (whole entry): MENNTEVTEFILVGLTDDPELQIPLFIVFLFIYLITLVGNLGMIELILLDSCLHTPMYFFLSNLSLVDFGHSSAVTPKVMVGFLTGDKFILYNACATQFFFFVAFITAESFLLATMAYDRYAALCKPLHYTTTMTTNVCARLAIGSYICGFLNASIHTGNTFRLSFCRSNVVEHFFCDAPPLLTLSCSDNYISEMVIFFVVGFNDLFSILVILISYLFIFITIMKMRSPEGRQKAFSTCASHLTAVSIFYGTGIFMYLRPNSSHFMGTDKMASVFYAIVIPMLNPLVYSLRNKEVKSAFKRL
Procedure, shortened: as §1

OR5BL = system: T9, OR5BL
T9 sequence (whole entry): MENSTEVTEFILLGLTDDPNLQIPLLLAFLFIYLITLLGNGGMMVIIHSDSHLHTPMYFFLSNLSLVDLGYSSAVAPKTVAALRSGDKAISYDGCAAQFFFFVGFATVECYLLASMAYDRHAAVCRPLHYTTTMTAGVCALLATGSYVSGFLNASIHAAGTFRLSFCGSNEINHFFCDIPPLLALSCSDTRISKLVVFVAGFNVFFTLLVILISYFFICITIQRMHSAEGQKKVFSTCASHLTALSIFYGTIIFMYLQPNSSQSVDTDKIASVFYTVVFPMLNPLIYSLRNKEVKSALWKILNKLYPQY
Procedure, shortened: as §1

OR5C1 (Homo sapiens) = molecular target: T10, OR5C1 (Homo sapiens) (UniProt Q8NGR4)
T10 sequence (whole entry): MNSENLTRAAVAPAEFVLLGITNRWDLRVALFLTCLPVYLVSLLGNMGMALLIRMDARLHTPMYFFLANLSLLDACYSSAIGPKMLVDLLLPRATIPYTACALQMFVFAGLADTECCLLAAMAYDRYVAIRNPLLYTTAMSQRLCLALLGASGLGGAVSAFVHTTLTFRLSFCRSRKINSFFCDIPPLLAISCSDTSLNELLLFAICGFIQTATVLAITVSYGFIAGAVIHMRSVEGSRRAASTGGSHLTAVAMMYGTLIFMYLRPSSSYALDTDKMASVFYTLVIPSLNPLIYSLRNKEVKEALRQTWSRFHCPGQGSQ
Procedure, shortened: as §1

Measured: odorant receptor agonist call

CCC(C)=O
inactive: all assays above
